Test results reported in article PMC12845483 (2026).

Assay: peptide made by a vendor
Conditions: whole synthesis, HPLC

DGARYCRGDCFDG-RRRRRRRRRR
purity (crude or final not stated): 99%

RRRRRRRRRR-RGD
purity (crude or final not stated): 96%

CRGDKGPDCRRRRRRRRRR
purity (crude or final not stated): 99%

RRRRRRRRRR
purity (crude or final not stated): 98%

End groups of sequences in plain letters are not given here.
